The other results are listed elsewhere or left out.
What follows are targets tested with COc1ccc(Cn2ccc3ccc(C(=O)NO)cc32)cc1 (assay: dose-dependent thermal stabilisation call (2D-TPP, DLPTP, 10% FDR) (binary (1 = stabilised)); higher = stabilised by the compound). Conditions: system: HL-60 intact cells; concentration range 0.04-10 µM.

Sequences of proteins named here, by UniProt entry; tags and fusion partners are left off. A change or cut given only in a name is not applied to a line headed by its entry.
UniProt Q6UB35, whole entry: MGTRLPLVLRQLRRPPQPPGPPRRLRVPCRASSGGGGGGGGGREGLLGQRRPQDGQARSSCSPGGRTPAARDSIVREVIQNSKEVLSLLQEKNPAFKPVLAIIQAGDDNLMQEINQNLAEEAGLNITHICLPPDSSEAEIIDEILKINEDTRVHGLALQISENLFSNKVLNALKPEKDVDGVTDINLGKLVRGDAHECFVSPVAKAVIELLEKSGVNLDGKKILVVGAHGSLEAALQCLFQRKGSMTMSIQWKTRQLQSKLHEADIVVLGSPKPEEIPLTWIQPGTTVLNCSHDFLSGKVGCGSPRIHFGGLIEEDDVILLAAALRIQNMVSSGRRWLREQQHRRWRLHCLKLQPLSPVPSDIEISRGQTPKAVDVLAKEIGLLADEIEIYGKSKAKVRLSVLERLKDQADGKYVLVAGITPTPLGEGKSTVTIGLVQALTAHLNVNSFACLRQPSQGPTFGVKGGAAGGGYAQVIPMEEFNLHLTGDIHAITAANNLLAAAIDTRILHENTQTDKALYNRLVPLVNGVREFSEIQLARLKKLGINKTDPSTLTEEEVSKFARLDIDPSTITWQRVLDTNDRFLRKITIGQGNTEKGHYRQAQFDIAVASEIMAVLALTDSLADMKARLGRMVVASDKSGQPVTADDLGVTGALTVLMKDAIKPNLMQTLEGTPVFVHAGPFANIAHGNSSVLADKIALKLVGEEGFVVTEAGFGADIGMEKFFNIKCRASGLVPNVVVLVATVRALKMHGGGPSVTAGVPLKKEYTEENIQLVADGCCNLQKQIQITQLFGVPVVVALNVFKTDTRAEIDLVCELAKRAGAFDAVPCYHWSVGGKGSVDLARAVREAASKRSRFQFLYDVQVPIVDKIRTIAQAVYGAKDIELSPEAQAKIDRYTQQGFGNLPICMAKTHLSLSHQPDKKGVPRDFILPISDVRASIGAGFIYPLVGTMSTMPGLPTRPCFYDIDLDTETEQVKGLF
UniProt P49914: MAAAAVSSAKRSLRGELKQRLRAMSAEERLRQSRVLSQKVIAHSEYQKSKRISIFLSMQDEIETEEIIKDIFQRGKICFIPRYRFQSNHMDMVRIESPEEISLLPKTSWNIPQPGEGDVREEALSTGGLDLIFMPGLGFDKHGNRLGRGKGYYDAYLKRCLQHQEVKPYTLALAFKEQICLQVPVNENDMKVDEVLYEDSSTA
UniProt Q9NPE3: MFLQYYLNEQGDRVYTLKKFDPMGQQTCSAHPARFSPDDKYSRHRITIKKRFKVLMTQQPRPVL
UniProt Q13564: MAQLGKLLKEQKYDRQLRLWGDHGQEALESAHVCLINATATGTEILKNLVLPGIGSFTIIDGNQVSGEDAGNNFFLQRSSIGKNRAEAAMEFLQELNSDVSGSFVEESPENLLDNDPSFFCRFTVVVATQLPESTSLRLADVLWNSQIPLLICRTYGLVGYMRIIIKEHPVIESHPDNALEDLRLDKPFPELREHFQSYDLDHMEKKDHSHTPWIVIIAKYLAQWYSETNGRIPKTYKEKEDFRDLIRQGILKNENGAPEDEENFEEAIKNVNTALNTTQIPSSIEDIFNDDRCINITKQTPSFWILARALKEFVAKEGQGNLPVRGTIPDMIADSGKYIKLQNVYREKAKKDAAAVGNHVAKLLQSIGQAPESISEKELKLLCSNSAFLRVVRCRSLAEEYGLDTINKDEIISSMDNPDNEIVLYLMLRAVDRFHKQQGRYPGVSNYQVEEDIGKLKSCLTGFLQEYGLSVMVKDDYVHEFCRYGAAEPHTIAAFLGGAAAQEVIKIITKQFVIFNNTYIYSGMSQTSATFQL
UniProt Q13505: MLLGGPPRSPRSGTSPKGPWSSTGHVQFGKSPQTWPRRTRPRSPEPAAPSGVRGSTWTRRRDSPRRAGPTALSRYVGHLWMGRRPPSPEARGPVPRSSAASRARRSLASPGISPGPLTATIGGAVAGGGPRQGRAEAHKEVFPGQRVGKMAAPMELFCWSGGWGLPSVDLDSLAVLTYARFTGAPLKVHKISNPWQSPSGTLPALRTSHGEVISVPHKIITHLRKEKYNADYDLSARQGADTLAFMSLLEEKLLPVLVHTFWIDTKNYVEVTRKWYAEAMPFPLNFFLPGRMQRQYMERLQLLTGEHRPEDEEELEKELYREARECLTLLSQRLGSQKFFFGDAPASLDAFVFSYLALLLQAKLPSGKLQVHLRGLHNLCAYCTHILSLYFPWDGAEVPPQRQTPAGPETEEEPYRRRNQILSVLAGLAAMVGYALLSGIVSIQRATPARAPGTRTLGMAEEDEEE
UniProt Q96D46: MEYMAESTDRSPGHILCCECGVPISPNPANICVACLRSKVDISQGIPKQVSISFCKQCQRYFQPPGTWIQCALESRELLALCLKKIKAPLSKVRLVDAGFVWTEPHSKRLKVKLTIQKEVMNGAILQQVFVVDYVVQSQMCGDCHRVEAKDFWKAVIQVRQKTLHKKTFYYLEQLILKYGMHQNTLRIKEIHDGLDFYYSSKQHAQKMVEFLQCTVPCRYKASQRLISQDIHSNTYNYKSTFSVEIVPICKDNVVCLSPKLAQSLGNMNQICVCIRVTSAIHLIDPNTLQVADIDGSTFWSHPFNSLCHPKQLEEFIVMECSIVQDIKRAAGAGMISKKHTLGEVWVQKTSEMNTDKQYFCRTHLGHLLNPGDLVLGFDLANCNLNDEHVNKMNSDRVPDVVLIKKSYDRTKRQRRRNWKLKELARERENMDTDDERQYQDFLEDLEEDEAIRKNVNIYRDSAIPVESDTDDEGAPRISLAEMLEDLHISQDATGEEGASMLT
UniProt Q12968: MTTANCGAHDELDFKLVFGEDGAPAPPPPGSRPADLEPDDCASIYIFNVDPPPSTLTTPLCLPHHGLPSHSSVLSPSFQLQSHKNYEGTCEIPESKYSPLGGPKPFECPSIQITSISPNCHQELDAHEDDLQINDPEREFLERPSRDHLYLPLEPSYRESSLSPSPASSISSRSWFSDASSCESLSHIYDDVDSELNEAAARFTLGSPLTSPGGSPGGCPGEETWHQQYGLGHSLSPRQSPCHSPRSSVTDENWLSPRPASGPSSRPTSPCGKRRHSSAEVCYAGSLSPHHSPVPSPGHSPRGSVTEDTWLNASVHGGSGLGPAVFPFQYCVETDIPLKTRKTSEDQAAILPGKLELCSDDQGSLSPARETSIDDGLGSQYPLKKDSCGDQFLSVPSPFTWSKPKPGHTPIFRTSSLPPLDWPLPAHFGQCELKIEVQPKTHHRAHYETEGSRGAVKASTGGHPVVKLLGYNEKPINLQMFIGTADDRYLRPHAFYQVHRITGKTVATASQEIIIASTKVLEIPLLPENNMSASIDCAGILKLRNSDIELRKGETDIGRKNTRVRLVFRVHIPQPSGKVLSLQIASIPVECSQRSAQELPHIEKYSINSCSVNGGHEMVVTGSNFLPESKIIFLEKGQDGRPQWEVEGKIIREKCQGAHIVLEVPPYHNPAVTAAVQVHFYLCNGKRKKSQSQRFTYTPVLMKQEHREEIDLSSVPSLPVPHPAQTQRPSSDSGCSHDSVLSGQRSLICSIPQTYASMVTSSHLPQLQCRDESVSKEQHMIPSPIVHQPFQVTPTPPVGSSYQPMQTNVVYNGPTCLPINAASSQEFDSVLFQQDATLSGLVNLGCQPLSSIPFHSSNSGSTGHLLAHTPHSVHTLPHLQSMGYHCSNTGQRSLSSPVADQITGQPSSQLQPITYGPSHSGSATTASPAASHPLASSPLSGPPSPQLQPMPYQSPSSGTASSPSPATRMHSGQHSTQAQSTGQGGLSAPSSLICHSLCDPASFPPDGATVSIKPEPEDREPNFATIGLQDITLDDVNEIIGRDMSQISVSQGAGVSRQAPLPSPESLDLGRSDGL
UniProt O95299, whole entry: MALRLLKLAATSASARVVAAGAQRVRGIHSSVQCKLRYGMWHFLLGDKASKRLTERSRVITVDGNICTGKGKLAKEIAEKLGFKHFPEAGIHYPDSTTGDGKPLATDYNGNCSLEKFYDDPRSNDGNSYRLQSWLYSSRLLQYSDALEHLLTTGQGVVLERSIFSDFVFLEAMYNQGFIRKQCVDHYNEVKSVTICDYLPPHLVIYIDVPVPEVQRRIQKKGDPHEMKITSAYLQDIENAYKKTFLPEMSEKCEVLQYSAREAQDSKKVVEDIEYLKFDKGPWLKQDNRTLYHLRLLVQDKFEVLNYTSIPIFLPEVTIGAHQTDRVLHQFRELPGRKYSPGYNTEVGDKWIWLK
UniProt P11586, whole entry: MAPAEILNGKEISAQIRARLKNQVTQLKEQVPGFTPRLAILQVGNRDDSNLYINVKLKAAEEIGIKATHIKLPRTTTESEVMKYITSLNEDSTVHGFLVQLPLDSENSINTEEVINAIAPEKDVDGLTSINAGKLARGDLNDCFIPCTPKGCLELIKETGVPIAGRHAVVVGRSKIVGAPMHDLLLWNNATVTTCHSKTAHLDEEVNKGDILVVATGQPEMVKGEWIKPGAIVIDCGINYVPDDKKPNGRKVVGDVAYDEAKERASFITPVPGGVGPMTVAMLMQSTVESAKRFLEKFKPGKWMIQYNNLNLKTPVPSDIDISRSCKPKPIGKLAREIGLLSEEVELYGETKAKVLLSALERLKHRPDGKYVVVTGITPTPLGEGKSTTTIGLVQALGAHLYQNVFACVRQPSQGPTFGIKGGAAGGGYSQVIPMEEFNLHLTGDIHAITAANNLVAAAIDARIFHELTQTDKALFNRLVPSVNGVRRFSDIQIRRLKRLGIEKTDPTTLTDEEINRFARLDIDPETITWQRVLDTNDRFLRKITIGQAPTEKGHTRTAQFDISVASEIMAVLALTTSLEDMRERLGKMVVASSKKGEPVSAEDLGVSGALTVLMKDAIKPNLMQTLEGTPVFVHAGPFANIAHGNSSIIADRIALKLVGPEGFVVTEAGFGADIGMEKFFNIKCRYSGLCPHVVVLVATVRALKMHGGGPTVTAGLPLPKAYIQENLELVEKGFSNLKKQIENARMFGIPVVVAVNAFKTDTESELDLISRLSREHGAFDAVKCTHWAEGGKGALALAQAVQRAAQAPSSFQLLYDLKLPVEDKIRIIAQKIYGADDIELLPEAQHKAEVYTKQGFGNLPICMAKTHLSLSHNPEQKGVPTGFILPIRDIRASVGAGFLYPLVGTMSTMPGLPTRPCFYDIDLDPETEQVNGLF
UniProt O43639, whole entry: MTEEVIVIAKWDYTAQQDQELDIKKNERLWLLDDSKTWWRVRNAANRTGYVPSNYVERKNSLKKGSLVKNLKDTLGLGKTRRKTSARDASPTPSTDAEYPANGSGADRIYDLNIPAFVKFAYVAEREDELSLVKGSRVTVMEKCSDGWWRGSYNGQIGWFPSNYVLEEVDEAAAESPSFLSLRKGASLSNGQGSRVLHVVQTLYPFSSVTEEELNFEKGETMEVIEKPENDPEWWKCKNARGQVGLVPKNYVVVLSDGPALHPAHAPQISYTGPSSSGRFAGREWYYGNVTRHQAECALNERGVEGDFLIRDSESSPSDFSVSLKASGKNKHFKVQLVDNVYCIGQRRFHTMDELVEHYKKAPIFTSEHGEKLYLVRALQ
UniProt P18440: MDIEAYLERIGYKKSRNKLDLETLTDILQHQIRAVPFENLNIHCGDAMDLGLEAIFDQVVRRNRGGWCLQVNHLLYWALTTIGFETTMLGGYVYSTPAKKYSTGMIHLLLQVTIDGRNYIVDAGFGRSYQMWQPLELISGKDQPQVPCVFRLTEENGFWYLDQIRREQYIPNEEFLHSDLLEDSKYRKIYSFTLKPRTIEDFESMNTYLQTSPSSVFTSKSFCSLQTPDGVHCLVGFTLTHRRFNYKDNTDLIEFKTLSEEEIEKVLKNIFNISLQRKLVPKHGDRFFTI
UniProt O43920, whole entry: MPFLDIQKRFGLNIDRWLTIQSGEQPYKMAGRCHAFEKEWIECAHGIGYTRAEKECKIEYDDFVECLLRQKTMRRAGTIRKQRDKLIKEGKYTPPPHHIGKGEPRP
UniProt Q96E11: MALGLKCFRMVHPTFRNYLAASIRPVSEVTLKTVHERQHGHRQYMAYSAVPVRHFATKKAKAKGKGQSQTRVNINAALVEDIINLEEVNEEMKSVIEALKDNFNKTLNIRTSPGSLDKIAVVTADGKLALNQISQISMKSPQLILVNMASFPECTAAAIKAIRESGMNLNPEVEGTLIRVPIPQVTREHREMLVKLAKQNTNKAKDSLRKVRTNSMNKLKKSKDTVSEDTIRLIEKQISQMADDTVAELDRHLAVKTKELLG
UniProt Q9NX24: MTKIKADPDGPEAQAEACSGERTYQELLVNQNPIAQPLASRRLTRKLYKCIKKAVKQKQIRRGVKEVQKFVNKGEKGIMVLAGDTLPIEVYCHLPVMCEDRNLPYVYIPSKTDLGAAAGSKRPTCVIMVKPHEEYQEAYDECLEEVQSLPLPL
UniProt O15239, whole entry: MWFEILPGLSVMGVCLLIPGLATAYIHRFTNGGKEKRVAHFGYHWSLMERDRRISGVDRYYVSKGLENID
UniProt O95298, whole entry: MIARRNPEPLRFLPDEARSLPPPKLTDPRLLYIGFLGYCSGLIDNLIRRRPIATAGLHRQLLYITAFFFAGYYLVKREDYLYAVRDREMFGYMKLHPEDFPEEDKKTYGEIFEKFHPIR

| Target | dose-dependent thermal stabilisation call |
| --- | --- |
| MTHFD1L (UniProt Q6UB35) | inactive: 0 |
| NCOR2 (UniProt Q9Y618) | inactive: 0 |
| NEK4 (UniProt P51957) | inactive: 0 |
| ND5 (UniProt P03915) | inactive: 0 |
| MTHFS (UniProt P49914) | inactive: 0 |
| NOP10 (UniProt Q9NPE3) | inactive: 0 |
| NECAP2 (UniProt Q9NVZ3) | inactive: 0 |
| MRPS35 (UniProt P82673) | inactive: 0 |
| NDST2 (UniProt P52849) | inactive: 0 |
| NAGA (UniProt P17050) | inactive: 0 |
| NBEA (UniProt Q8NFP9) | inactive: 0 |
| NAT13 (UniProt Q9GZZ1) | inactive: 0 |
| MTMR6 (UniProt Q9Y217) | inactive: 0 |
| NFKB2 (UniProt Q00653) | inactive: 0 |
| NAE1 (UniProt Q13564) | inactive: 0 |
| MTX1 (UniProt Q13505) | inactive: 0 |
| NDFIP1 (UniProt Q9BT67) | inactive: 0 |
| NMD3 (UniProt Q96D46) | inactive: 0 |
| NFATC3 (UniProt Q12968) | inactive: 0 |

A different layout for some results above:
Target	dose-dependent thermal stabilisation call
NCOR2 (UniProt Q9Y618)	inactive: 0
NEK4 (UniProt P51957)	inactive: 0
ND5 (UniProt P03915)	inactive: 0
MTHFS (UniProt P49914)	inactive: 0
NOP10 (UniProt Q9NPE3)	inactive: 0
NECAP2 (UniProt Q9NVZ3)	inactive: 0
MRPS35 (UniProt P82673)	inactive: 0
NDST2 (UniProt P52849)	inactive: 0
NAGA (UniProt P17050)	inactive: 0
NBEA (UniProt Q8NFP9)	inactive: 0
NAT13 (UniProt Q9GZZ1)	inactive: 0

More records.

| Target | dose-dependent thermal stabilisation call |
| --- | --- |
| NEK7 (UniProt Q8TDX7) | inactive: 0 |
| NDUFA10 (UniProt O95299) | inactive: 0 |
| MTF2 (UniProt Q9Y483) | inactive: 0 |
| N-PAC | inactive: 0 |
| MTHFD1 (UniProt P11586) | inactive: 0 |
| NOC4L (UniProt Q9BVI4) | inactive: 0 |
| NCK2 (UniProt O43639) | inactive: 0 |
| MRTO4 (UniProt Q9UKD2) | inactive: 0 |
| NDUFB6 (UniProt O95139) | inactive: 0 |
| NAT1 (UniProt P18440) | inactive: 0 |
| MYO1G (UniProt B0I1T2) | inactive: 0 |
| NDUFS5 (UniProt O43920) | inactive: 0 |
| MRRF (UniProt Q96E11) | inactive: 0 |
| NHP2 (UniProt Q9NX24) | inactive: 0 |
| NME7 (UniProt Q9Y5B8) | inactive: 0 |
| NLN (UniProt Q9BYT8) | active: 1 |
| NF1 (UniProt P21359) | inactive: 0 |
| NDUFA1 (UniProt O15239) | inactive: 0 |
| NDUFC2 (UniProt O95298) | inactive: 0 |

— the supplement of paper PMC7666118
